According to paper PMC10196724:
No constants are given. Whether binding was seen depends on the method and setting. In cells and extracts the contact can be indirect. Here binding means that the protein was enriched with, or labelled near, the bait; the list need not be complete. For part of these data: No binding means not detected with the bait.

Sequences of proteins named here, by UniProt entry; tags and fusion partners are left off.
UniProt P49840: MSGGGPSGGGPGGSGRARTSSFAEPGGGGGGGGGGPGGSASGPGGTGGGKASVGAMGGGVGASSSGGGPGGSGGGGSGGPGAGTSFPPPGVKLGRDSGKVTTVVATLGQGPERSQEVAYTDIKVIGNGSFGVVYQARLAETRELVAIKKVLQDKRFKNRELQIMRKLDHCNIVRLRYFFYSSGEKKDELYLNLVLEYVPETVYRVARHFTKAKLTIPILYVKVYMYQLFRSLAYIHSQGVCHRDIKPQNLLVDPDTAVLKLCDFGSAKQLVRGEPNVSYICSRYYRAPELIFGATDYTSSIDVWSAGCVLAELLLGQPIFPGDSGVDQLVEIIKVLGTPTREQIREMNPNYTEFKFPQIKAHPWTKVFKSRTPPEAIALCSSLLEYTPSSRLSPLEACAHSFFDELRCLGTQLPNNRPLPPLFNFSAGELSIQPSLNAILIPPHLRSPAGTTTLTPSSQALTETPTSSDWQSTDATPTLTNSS
UniProt P49841: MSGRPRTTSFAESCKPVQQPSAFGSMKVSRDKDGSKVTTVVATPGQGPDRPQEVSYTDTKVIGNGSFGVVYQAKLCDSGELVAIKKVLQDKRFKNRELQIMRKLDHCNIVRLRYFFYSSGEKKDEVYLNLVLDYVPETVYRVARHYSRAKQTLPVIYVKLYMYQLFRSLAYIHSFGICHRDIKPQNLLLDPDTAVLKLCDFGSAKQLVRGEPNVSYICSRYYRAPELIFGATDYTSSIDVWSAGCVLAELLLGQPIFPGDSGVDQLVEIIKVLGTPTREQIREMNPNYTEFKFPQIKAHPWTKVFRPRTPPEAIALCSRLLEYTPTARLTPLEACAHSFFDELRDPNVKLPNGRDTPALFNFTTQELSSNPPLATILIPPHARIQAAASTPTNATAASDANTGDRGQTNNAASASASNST
UniProt Q9NYF8: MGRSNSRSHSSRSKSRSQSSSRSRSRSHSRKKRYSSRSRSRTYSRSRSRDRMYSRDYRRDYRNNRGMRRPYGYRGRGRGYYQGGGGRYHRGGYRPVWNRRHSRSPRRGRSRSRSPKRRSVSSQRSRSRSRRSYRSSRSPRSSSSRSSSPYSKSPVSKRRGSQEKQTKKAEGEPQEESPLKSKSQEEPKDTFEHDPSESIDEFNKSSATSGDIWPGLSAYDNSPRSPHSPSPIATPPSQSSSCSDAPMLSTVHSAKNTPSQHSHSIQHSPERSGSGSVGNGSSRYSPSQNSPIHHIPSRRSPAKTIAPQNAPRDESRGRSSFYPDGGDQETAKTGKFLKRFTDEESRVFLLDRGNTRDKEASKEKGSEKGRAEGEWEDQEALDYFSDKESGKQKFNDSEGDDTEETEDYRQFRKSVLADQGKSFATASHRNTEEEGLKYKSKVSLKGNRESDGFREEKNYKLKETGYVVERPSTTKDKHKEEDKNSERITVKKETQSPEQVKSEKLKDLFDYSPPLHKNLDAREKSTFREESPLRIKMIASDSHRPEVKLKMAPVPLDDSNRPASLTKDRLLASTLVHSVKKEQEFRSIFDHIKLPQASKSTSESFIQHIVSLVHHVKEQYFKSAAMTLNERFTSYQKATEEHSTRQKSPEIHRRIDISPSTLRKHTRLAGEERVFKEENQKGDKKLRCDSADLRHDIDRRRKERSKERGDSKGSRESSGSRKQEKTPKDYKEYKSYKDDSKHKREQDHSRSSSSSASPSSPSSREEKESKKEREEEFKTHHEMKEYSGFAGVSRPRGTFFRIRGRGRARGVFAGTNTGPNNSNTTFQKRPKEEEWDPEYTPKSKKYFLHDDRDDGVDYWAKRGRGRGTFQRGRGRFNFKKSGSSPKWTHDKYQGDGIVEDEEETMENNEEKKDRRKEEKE
UniProt O95793: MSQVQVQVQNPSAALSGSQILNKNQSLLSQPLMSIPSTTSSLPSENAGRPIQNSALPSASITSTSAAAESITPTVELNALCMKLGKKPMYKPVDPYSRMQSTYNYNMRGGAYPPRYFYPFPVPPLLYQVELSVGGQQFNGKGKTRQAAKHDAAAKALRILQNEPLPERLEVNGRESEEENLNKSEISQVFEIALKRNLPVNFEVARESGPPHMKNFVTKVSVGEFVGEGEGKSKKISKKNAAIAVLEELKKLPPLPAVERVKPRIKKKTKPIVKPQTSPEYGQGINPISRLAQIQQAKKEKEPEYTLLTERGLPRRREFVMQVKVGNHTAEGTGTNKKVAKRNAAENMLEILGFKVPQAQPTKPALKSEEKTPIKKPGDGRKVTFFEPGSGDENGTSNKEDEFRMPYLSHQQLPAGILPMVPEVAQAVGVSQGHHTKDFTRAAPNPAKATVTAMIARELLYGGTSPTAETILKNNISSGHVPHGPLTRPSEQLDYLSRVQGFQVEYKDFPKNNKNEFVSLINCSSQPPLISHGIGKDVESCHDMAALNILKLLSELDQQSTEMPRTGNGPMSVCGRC

B1: THRAP3 (protein, UniProt Q9Y2W1 1-955)
chain: MSKTNKSKSGSRSSRSRSASRSRSRSFSKSRSRSRSLSRSRKRRLSSRSRSRSYSPAHNRERNHPRVYQNRDFRGHNRGYRRPYYFRGRNRGFYPWGQYNRGGYGNYRSNWQNYRQAYSPRRGRSRSRSPKRRSPSPRSRSHSRNSDKSSSDRSRRSSSSRSSSNHSRVESSKRKSAKEKKSSSKDSRPSQAAGDNQGDEAKEQTFSGGTSQDTKASESSKPWPDATYGTGSASRASAVSELSPRERSPALKSPLQSVVVRRRSPRPSPVPKPSPPLSSTSQMGSTLPSGAGYQSGTHQGQFDHGSGSLSPSKKSPVGKSPPSTGSTYGSSQKEESAASGGAAYTKRYLEEQKTENGKDKEQKQTNTDKEKIKEKGSFSDTGLGDGKMKSDSFAPKTDSEKPFRGSQSPKRYKLRDDFEKKMADFHKEEMDDQDKDKAKGRKESEFDDEPKFMSKVIGANKNQEEEKSGKWEGLVYAPPGKEKQRKTEELEEESFPERSKKEDRGKRSEGGHRGFVPEKNFRVTAYKAVQEKSSSPPPRKTSESRDKLGAKGDFPTGKSSFSITREAQVNVRMDSFDEDLARPSGLLAQERKLCRDLVHSNKKEQEFRSIFQHIQSAQSQRSPSELFAQHIVTIVHHVKEHHFGSSGMTLHERFTKYLKRGTEQEAAKNKKSPEIHRRIDISPSTFRKHGLAHDEMKSPREPGYKAEGKYKDDPVDLRLDIERRKKHKERDLKRGKSRESVDSRDSSHSRERSAEKTEKTHKGSKKQKKHRRARDRSRSSSSSSQSSHSYKAEEYTEETEEREESTTGFDKSRLGTKDFVGPSERGGGRARGTFQFRARGRGWGRGNYSGNNNNNSNNDFQKRNREEEWDPEYTPKSKKYYLHDDREGEGSDKWVSRGRGRGAFPRGRGRFMFRKSSTSPKWAHDKFSGEEGEIEDDESGTENREEKDNIQPTTE

Columns and labels:
[1] = target: GSK3α-Flag (human) (UniProt P49840); assay: affinity purification with mass spectrometry; GSK3A-Flag or GSK3B-Flag overexpressed in 293T; lysis in 25 mM Tris-HCl, 150 mM NaCl, 1% NP-40, 5% glycerol, pH 7.4; pulled down with anti-Flag magnetic beads; label-free LC-MS/MS, 3 replicates; binding proteins: ratio to control >1.5, p < 0.05, or only identified in the overexpression group
[2] = target: GSK3β-Flag (human) (UniProt P49841); assay: as above

Molecule	binding [1]	binding [2]
BCLAF1 (from UniProt Q9NYF8 1-920)	binds	no binding
STAU1 (from UniProt O95793 1-577)	binds	no binding
B1	binds	no binding
